Publication PMC3734102
No constants are given. Whether binding was seen depends on the method and setting. Binding seen in cells or lysates may run through a third protein. Binding can be weak; no strength is given. Sequences can lack the tags named with a protein.

Protein sequences, listed by entry. Tags and fused reporters are not part of them. Lines headed by an entry give the natural chain unless they say otherwise; changes in a name come on top.
UniProt P50082: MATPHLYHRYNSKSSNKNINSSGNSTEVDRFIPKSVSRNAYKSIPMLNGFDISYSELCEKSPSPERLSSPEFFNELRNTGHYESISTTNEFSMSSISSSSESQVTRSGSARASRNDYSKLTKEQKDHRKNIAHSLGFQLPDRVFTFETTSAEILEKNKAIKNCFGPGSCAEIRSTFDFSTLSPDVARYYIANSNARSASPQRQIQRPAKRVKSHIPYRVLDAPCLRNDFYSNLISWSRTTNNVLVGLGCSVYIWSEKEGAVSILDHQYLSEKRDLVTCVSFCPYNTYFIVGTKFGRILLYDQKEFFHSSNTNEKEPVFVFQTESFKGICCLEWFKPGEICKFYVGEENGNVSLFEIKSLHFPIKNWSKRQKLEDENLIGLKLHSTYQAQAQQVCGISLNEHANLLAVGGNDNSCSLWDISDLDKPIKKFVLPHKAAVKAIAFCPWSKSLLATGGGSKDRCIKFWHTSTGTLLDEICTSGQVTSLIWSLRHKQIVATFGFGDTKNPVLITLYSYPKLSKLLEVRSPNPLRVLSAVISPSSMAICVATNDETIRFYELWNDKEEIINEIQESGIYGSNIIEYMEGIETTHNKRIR

Columns and labels:
[1] = target: T1, Cdc27p-9myc (S. cerevisiae) (UniProt P38042); test: co-IP; Cdc27-9myc strain KCY328 with Ama1p-T7 plasmids, cells harvested 12 h after transfer to sporulation medium (meiosis); 1 mg soluble protein; immunoprecipitation and immunoblot; which protein was precipitated is not told
T1 sequence: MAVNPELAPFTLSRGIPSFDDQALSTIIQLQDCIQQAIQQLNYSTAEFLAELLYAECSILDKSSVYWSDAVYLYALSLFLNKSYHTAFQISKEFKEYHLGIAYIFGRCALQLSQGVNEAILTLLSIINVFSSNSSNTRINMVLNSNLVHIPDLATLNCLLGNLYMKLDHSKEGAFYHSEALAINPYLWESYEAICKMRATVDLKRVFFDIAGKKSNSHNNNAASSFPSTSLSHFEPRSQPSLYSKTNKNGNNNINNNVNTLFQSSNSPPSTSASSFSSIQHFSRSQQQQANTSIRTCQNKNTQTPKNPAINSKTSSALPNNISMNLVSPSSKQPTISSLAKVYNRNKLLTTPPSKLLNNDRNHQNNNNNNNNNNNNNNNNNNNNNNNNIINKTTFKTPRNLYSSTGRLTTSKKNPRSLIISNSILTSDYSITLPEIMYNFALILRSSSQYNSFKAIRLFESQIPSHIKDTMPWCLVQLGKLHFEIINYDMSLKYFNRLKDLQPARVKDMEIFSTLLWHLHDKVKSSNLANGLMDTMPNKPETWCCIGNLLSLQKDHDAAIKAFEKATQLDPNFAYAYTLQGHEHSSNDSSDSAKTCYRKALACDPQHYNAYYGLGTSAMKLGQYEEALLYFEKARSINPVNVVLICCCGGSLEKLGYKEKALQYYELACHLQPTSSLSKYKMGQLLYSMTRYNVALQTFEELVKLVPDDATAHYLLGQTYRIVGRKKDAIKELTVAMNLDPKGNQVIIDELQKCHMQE

[2] = target: T1, Cdc27p-9myc (S. cerevisiae); test: co-IP; Cdc27-9myc strain RSY1337 with GST or GST-Ama1p fusion plasmids, grown in raffinose/galactose medium to induce the fusion genes; 1 mg soluble protein; immunoprecipitation and immunoblot, with a no-antibody mock immunoprecipitation

| Substance | binding [1] | binding [2] |
| --- | --- | --- |
| Ama1p^CB∆-T7 (from UniProt P50082) | binds |  |
| Ama1p^CB∆/IR∆-T7 (from UniProt P50082) | binds weakly |  |
| Ama1p^IR∆-T7 (from UniProt P50082) | binds |  |
| GST-Ama1p^1-200CB∆ (from UniProt P50082) (domain or fragment) |  | binds |
